Data on two molecules can be found in paper PMC5979594.

The test addresses T1, TBPH (TAR DNA-binding protein-43 homolog) (Drosophila melanogaster (endogenous in larval brain)) (UniProt O97468).
T1 sequence: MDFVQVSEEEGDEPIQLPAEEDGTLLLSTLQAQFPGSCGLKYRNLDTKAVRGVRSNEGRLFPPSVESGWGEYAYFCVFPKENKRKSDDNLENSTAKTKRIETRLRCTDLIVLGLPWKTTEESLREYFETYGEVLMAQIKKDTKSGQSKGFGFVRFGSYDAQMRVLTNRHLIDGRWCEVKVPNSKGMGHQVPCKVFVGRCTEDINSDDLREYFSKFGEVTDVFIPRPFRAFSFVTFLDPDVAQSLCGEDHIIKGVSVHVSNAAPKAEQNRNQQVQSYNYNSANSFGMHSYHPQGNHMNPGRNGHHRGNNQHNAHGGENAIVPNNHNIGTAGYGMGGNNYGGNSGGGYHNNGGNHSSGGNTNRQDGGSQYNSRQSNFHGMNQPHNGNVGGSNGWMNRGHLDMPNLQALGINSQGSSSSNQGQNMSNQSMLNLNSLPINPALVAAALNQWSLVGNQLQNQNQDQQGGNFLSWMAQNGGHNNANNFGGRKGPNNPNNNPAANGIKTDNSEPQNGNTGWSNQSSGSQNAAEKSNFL
Put plainly: co-IP; affinity-purified anti-TBPH antibody (4 ug) on Dynabeads protein A, 250 ug wild-type larval (brain) nuclear extract, overnight; washes in 10 mM HEPES-KOH pH 8, 100 mM NaCl, 0.05 Tween 20, 10% glycerol; Western blot for TBPH, Squid, Hrb87F, GAPDH; generic rabbit IgG as control. Background: A western blot detects proteins with antibodies after separation by electrophoresis.

No constants are given. Whether binding was seen depends on the method and setting. Binding seen in cells or lysates may run through a third protein. Some entries that bind do so weakly or less than the wild type.

B1: Hrb87F hnRNP (protein, UniProt P48810 1-385)
chain: MAEQNDSNGNYDDGEEITEPEQLRKLFIGGLDYRTTDDGLKAHFEKWGNIVDVVVMKDPKTKRSRGFGFITYSQSYMIDNAQNARPHKIDGRTVEPKRAVPRQEIDSPNAGATVKKLFVGGLRDDHDEECLREYFKDFGQIVSVNIVSDKDTGKKRGFAFIEFDDYDPVDKIILQKTHSIKNKTLDVKKAIAKQDMDRQGGGGGRGGPRAGGRGGQGDRGQGGGGWGGQNRQNGGGNWGGAGGGGGFGNSGGNFGGGQGGGSGGWNQQGGSGGGPWNNQGGGNGGWNGGGGGGYGGGNSNGSWGGNGGGGGGGGGFGNEYQQSYGGGPQRNSNFGNNRPAPYSQGGGGGGFNKGNQGGGQGFAGNNYNTGGGGQGGNMGGGNRRY
On to B1, for which the binding entry was “binds”.

B2: Squid hnRNP (protein, UniProt Q08473 1-344)
chain: MAENKQVDTEINGEDFTKDVTADGPGSENGDAGAAGSTNGSSDNQSAASGQRDDDRKLFVGGLSWETTEKELRDHFGKYGEIESINVKTDPQTGRSRGFAFIVFTNTEAIDKVSAADEHIINSKKVDPKKAKARHGKIFVGGLTTEISDEEIKTYFGQFGNIVEVEMPFDKQKSQRKGFCFITFDSEQVVTDLLKTPKQKIAGKEVDVKRATPKPENQMMGGMRGGPRGGMRGGRGGYGGRGGYNNQWDGQGSYGGYGGGYGGYGAGGYGDYYAGGYYNGYDYGYDGYGYGGGFEGNGYGGGGGGNMGGGRGGPRGGGGPKGGGGFNGGKQRGGGGRQQRHQPY
With B2, the binding entry is reported as “binds”.
